Measurements reported in PubChem BioAssay AID488837 (National Center for Advancing Translational Sciences (NCATS), 2010).
Screen size: about 330,000 compounds; about 20 (0.006%) were called active. The shares of active, inactive and inconclusive entries below differ from those in the screen. Calls come from the whole dose curve; as a rule, active = well fitted inhibition curve with a large enough effect; inconclusive = small, poorly fitted or top-dose-only effect, or effect the other way; inactive = flat fitted curve, though single readings scatter. Potencies of inconclusive entries are doubtful fits and often do not repeat.
% is set by controls: 0 for no effect and ±100 for the full control effect; potency is the fitted concentration of half-maximal effect.

Sequences of proteins named here, by UniProt entry; tags and fusion partners are left off. A change or cut given only in a name is not applied to a line headed by its entry.
UniProt O00167: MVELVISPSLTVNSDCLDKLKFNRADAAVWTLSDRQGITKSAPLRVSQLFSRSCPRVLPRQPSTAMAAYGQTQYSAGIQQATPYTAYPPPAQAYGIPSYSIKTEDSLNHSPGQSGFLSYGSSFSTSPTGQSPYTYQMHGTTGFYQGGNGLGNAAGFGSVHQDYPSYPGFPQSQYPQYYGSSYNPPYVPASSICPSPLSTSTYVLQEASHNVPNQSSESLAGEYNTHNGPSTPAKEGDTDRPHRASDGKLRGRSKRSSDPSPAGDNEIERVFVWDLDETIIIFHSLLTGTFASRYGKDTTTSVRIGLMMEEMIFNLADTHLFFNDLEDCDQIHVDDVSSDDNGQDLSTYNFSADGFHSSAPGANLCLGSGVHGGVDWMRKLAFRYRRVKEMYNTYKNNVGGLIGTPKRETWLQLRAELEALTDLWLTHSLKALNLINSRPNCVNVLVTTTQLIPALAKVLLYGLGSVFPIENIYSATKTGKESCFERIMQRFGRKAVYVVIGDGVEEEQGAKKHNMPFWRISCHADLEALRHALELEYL

These compounds were tested against Protein phosphatase EYA2 (Homo sapiens) (UniProt O00167) (assay: qHTS Assay for Inhibitors of the Phosphatase Activity of Eya2). Settings: recombinant Eya2, OMFP fluorescence dephosphorylation (OMFP is methylfluorescein phosphate); activity, negative = inhibition: at 76.9 µM (top of the series) unless noted.
How it was run: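 Eya2 protein (added as 0.2 uM solution) was preincubated with compound for 10 min at ambient temperature in 50 mM HEPES pH 7.5, 50 mM NaCl, 5 uM MgCl2, 0.05% BSA, 1 mM DTT. OMFP (added at 50 uM) then reacted 10 min; fluorescence read at 485/525 nm.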
For `COc1ccc(/C=N/NC(=O)c2nn(-c3ccccc3)c(=O)c3c(N)scc23)cc1`, the Potency was inconclusive: 79.4 µM [inhibitor, single point].
With `O=C(CN1CCN(Cc2ccc(F)cc2Cl)CC1)NCc1ccccc1` the Potency was inconclusive: 25.1 µM [inhibitor, single point].
`O=C(Nc1cccc(C(F)(F)F)c1)c1cc(-c2ccco2)on1` was tested, and the Potency was inconclusive: 112 µM [inhibitor, partial curve, poor fit].
In the case of `C=CCn1c(=O)/c(=C/c2ccc(C)o2)s/c1=C(/C#N)C(=O)c1ccccc1`, the activity, negative = inhibition is reported as inactive: 0.124% [at 15.4 µM].
In the case of `CCc1ccc2oc(C(=O)NCCc3ccc(S(N)(=O)=O)cc3)cc(=O)c2c1`, the Potency is reported as inconclusive: 22.4 µM [inhibitor, single point].
For `Cc1c(C(=O)N2CCCCC2)c(S(=O)(=O)N2CCN(c3ccc(Cl)cc3)CC2)c(C)n1C`, the “activity, negative = inhibition” value was inactive: -4.83%.
`CCOC(=O)CN1N=C(/C=C/c2ccc(C(C)C)cc2)CCC1=O` was tested, and the Potency was inconclusive: 100 µM [inhibitor, single point].
With `COc1ccc(C)cc1NC(=O)CN1CCN(C/C=C/c2ccccc2)CC1` the “activity, negative = inhibition” value was inactive: -2.63%.
For `COc1ccc2cc1Oc1ccc(cc1)C[C@H]1c3cc(c(OC)cc3CCN1C)Oc1c(OC)c(OC)cc3c1[C@H](C2)N(C)CC3`, the “activity, negative = inhibition” value was inactive: 5.26%.
`Cc1ccc2c(c1)N(C(=O)CCC(=O)NCCCN1CCC(Cc3ccccc3)CC1)CCO2` was tested, and the “activity, negative = inhibition” value was inactive: -9.73%.
In the case of `COc1cc(/C=C/C(=O)O)cc(S(=O)(=O)N2CCN(S(=O)(=O)c3ccc(Cl)cc3)CC2)c1OC`, the Potency is reported as inconclusive: 89.1 µM [inhibitor, single point].
`CC[n+]1ccc(C)c2cc(P(=O)(c3ccccc3)c3ccccc3)ccc21` was tested, and the Potency was inconclusive: 14.1 µM [inhibitor, partial curve, poor fit].
For `O=C(O)/C=C/C(=O)NC1CCCCCCCCCCC1`, the Potency was inconclusive: 100 µM [inhibitor, single point].
In the case of `CCOc1nc(OCC)c2cnn(C)c2n1`, the Potency is reported as inconclusive: 100 µM [inhibitor, single point].
`COc1ccc(Oc2nc(-c3ccccn3)nc3ccccc23)cc1` was tested, and the Potency was inconclusive: 89.1 µM [inhibitor, single point].
`CCOc1cc(C2NC(=O)NC(C)=C2C(=O)OCc2ccccc2)ccc1O` (stereo not given) was tested, and the “activity, negative = inhibition” value was inactive: 8.53%.
`COc1nn(-c2nc(-c3ccccc3)cc(C(F)(F)F)n2)cc1[N+](=O)[O-]` was tested, and the “activity, negative = inhibition” value was inactive: -4.54%.
In the case of `OCCCN1c2ccccc2Nc2nnc(-c3ccccc3)cc21`, the Potency is reported as inconclusive: 17.8 µM [inhibitor, partial curve, poor fit].
For `O=C(O)C1CCN(C(=O)COc2ccc3c(c2)oc(=O)c2ccccc23)CC1`, the Potency was inconclusive: 100 µM [inhibitor, single point].
With `CS(=O)(=O)CCSc1ncccc1C(=O)NCc1cccs1` the Potency was inconclusive: 89.1 µM [inhibitor, single point].
In the case of `Cc1csc(NC(=O)c2sc3nc(-c4cccs4)ccc3c2N)n1`, the “activity, negative = inhibition” value is reported as inactive: 27.8%.
With `CN(CC(=O)Nc1ccccc1Br)C(=O)c1ccccc1-c1nc2ccccc2s1` the “activity, negative = inhibition” value was inactive: 6.05%.
`CCOCCCNC(=O)c1cc(Sc2ccc(C)cc2)nc2ccccc12` was tested, and the “activity, negative = inhibition” value was inactive: 0.155%.
For `[O-][n+]1c(/C=C/c2ccccc2)ccc2ccccc21`, the Potency was inconclusive: 126 µM [inhibitor, partial curve, poor fit].
For `NC(=O)c1ccc(NC(=O)COC(=O)C2(c3ccccc3F)CCCC2)cc1`, the “activity, negative = inhibition” value was inactive: 3.65%.
With `CC1CCCC(C)N1C(=O)COC(=O)/C=C/c1ccc(Br)o1` (stereo not given) the “activity, negative = inhibition” value was inactive: -8.96%.
`COc1ccc(/C=N\NC(=O)c2cc(O)c(O)c(O)c2)cc1COc1ccc(C(=O)OCC(C)C)cc1` was tested, and the Potency was inconclusive: 100 µM [inhibitor, single point].
In the case of `O=C(CN1CCN(C/C=C/c2ccccc2)CC1)NCc1ccc(Cl)cc1`, the Potency is reported as inconclusive: 100 µM [inhibitor, single point].
With `Cc1ccc(Cn2ccc(NC(=O)c3cc(C4CC4)on3)n2)cc1` the “activity, negative = inhibition” value was inactive: -7.61%.
With `CCc1ccccc1NC(=S)N(Cc1cccc(C)c1)c1cccnc1` the Potency was inconclusive: 112 µM [inhibitor, single point].
With `CCOc1cc(-c2nc3n(c(=O)c2C#N)CCS3)ccc1O` the Potency was inconclusive: 25.1 µM [inhibitor, single point].
With `CCc1ccc(/C=N/NC(=O)c2ccccn2)cc1` the Potency was inconclusive: 501 µM [inhibitor, partial curve, poor fit].
`Cc1cccc(OCc2nnc(SCC(=O)N3c4ccccc4CCc4ccccc43)o2)c1` was tested, and the Potency was inconclusive: 89.1 µM [inhibitor, single point].
With `COc1ccc(CNC(=O)CCSc2nc(-c3ccc4c(c3)OCO4)cc(C(F)(F)F)n2)cc1` the “activity, negative = inhibition” value was inactive: 2.67%.
For `CCOC(=O)c1ccc(N=c2sc(C(=O)OC)cc(=O)n2CCCN2CCOCC2)cc1`, the Potency was “inactive”.
With `COc1ccc2c(c1)Cc1sc(NC(C)=O)nc1-2` the “activity, negative = inhibition” value was inactive: -23.9%.
`O=C(NNc1ccccn1)C(=O)NNS(=O)(=O)c1ccc(Cl)cc1` was tested, and the Potency was inconclusive: 22.4 µM [inhibitor, single point].
In the case of `CCOc1cc(/C=C2\C(=N)N3N=C(CC)SC3=NC2=O)ccc1OCCOc1ccc(NC(C)=O)cc1`, the Potency is reported as inconclusive: 112 µM [inhibitor, single point].
For `COc1ccc(C)cc1NC(=O)CN1CCN(S(=O)(=O)c2ccc(F)cc2)CC1`, the Potency was inconclusive: 28.2 µM [inhibitor, single point].
In the case of `COc1ccc(NC(=O)COC(=O)c2ccc(F)cc2F)cc1`, the Potency is reported as inconclusive: 22.4 µM [inhibitor, single point].
For `CC(NC(=S)Nc1ccc(F)cc1)c1ccccc1` (stereo not given), the Potency was inconclusive: 22.4 µM [inhibitor, single point].
For `CC(C)(C)C1=CC(=O)C(N2CCOCC2)=CC1=O`, the “activity, negative = inhibition” value was inactive: 4.13%.
`COc1cccc(-c2cc(C(F)(F)F)nc(N3CCCCC3)n2)c1` was tested, and the activity, negative = inhibition was inconclusive: -30.6% [inhibitor].
With `COc1ccc(CN2CCN(C(=O)C3CC(=O)N(C4CCCCCC4)C3)CC2)c(OC)c1OC` (stereo not given) the Potency was inconclusive: 89.1 µM [inhibitor, partial curve].
In the case of `CCOc1ccccc1/C=N/Nc1ccc(Cl)nn1`, the Potency is reported as inconclusive: 20 µM [inhibitor, single point].
